Experimental data: publication PMC7276988, “Cryo-EM Structure of the Fork Protection Complex Bound to CMG at a Replication Fork” (Molecular Cell, 2020)
No constants are given. Whether binding was seen depends on the method and setting. For some of these results: Binding seen in cells or lysates may run through a third protein. Some entries that bind do so weakly or less than the wild type.

The chains behind the UniProt entries cited, without tags or fusion partners. Where a name states a change or a piece, a line headed by the entry shows the natural chain unless it says otherwise.
UniProt P29469: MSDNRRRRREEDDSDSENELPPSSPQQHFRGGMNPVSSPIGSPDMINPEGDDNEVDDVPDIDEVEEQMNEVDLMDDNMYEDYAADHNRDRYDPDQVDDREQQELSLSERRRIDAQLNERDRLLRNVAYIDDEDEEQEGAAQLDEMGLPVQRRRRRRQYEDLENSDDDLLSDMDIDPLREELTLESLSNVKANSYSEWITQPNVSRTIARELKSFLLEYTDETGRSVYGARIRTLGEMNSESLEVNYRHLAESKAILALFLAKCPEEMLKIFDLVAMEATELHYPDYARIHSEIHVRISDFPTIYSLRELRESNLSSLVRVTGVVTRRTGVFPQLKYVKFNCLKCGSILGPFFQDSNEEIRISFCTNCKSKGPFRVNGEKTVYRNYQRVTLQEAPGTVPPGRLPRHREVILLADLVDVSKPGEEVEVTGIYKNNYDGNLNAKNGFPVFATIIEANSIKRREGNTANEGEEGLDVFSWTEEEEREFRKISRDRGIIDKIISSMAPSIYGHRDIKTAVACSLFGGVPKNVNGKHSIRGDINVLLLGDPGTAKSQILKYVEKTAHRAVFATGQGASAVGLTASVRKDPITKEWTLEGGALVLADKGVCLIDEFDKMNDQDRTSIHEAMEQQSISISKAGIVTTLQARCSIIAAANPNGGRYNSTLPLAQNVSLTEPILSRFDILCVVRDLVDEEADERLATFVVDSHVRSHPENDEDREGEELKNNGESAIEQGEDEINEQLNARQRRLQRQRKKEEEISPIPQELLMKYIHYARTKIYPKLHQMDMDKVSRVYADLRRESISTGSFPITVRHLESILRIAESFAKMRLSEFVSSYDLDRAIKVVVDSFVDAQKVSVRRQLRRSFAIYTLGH
UniProt P53091: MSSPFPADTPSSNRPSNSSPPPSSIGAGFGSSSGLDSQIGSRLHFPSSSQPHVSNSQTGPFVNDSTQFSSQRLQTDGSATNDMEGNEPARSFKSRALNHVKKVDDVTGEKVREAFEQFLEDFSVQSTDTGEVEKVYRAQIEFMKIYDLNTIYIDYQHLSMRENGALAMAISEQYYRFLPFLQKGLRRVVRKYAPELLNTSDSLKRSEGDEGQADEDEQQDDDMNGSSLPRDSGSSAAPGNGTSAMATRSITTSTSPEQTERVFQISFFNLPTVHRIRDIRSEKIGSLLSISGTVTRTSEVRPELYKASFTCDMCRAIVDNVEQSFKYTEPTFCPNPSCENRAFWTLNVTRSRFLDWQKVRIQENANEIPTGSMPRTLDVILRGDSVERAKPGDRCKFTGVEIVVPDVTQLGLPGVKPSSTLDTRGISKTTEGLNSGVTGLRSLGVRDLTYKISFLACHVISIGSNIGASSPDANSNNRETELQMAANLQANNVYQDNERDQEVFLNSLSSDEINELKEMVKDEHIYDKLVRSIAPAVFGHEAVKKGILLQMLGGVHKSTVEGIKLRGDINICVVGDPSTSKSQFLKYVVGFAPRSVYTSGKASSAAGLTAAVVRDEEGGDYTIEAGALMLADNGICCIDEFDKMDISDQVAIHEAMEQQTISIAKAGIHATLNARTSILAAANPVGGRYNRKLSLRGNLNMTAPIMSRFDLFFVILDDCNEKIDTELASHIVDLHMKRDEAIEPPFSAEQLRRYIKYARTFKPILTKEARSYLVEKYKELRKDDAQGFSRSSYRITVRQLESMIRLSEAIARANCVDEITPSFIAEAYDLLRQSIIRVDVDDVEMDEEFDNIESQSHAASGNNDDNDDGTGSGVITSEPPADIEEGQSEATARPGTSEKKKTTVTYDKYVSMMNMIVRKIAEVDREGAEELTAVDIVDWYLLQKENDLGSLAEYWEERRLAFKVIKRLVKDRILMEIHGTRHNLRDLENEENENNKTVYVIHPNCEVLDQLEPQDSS

Experiments:
[1] = target: T1, Cdc45-MCM-GINS (CMG) helicase (S. cerevisiae, UniProt P29469 1-868; P24279 1-971; P30665 1-933; P29496 1-775; P53091 1-1017; P38132 …); test: tandem affinity co-purification and glycerol gradient of co-expressed proteins; 15 proteins co-overexpressed in S. cerevisiae yJY74; anti-FLAG M2, Calmodulin Sepharose, 10-30% glycerol gradient; SDS-PAGE
T1 construct: Mcm2, S. cerevisiae, subunit of MCM in CMG; Mcm3, S. cerevisiae, subunit of MCM in CMG; Mcm4, S. cerevisiae, subunit of MCM in CMG; Mcm5, S. cerevisiae, subunit of MCM in CMG; Mcm6, S. cerevisiae, subunit of MCM in CMG; Mcm7, S. cerevisiae, subunit of MCM in CMG; Cdc45, S. cerevisiae, subunit of CMG; Psf1, S. cerevisiae, subunit of GINS in CMG; Psf2, S. cerevisiae, subunit of GINS in CMG; Psf3, …

Ctf4 (S. cerevisiae) = target: T2, Ctf4 (S. cerevisiae) (UniProt Q01454); test: cross-linking; XL-MS: co-expressed complex of CMG, Ctf4, Csm3/Tof1 and Mrc1, calmodulin eluate cross-linked with 100-fold excess of DSBU, 60 min, room temperature; trypsin, LC-MS/MS, MeroX; cross-links residues within about 30 Å
T2 sequence: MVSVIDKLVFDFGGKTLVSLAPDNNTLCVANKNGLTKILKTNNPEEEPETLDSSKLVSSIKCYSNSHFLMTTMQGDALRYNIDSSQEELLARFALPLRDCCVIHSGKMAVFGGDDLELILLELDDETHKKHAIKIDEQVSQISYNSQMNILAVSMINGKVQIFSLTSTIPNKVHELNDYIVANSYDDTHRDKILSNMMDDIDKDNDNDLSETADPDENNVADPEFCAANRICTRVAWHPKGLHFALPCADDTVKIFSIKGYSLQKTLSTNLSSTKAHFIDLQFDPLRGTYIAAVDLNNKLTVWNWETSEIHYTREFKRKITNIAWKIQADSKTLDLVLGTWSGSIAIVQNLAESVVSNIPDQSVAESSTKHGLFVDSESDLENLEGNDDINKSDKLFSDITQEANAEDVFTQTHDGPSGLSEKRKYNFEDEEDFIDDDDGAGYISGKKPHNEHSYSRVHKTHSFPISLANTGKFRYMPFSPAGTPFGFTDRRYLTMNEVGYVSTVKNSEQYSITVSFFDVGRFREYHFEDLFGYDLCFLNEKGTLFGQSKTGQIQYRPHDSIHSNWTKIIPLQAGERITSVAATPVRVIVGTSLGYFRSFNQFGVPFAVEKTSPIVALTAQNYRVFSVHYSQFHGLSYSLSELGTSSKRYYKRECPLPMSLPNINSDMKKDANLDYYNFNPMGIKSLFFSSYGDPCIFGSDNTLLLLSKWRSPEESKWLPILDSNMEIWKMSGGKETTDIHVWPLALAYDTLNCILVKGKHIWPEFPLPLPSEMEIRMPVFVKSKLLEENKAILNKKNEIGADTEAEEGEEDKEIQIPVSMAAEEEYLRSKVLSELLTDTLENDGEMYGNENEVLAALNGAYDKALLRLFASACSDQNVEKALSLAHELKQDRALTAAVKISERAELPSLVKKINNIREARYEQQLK

[2] = target: T1, Cdc45-MCM-GINS (CMG) helicase; test: as above
Mcm6 (S. cerevisiae) = Mcm6 (S. cerevisiae) (UniProt P53091); test: as above

Measured: binding

B1: Mrc1 (natural protein, S. cerevisiae, UniProt P25588 1-1096, looked up)
chain: MDDALHALSSLTAKKRTTTYKKVAVPILDENDNTNGNGPNDIDNPPELTGNGFLFANATLNRVKNRLEGKKAPEQNHNNGKDRSENSLPTQLISNLYDGGEELEKSEVKDNSYSEKNVSSSFTQTQRIPVSIQQDKVFNVPIHSVNDGKPTQLIKEDGLVNETSQALKTPLTTGRPGATQRIDSSGATSQTQPIKSIEPQSQIITTSSNHSNALSPKIPIIPTELIGTSPLFQSIQNRGPDTQMDVPPQTAHDEDKTQAIGIPQATHQEQKTQIDTVAQTLQDEVPHTLKIREIQSELASEDSKREKARNVEYKKPQKPIPTKKFFSKESFLADFDDSSSNEDDDIKLENAHPKPVQNDDELHENKSVELNLTDETRINEKRVPLLSSYANNLKREIDSSKCITLDLDSDSDEYGDDDMDSIKLSKDESVLPISQLSKATILNLKARLSKQNQKLSQRPNKSKDPKVDHNVLLNTLRKASRKQILDHQKEVIETKGLKLEDMAKEKEIVENLLEQEILRNKRIRQKEKRREKLEENDFQLNAHDSGSDSGSESSGFALSGNEIADYESSGSENDNRRESDSEKEDDEIILKQKKSHHVKHIINESDSDTEVEAKPKEKADESLPKRIAINLGHYGDNIGEDTDKFQETNVLDTQNIEEVMAERNTIENEVKDDVYVNEEADEAIRRQLIDKEKLQLKQKEKEHEAKIKELKKRGVTNFFEMEAEESEDEWHGIGGADGEGSDDYDSDLEKMIDDYSKNNFNPHEIREMLAAENKEMDIKMINKILYDIKNGGFRNKRAKNSLELELSDDDEDDVLQQYRLKRRELMRKRRLEIGDDAKLVKNPKSSAFFESMVEDIIEYKNPFGAEEEYNLDITSTATDLDTQDNSINVGDNTGNNEQKPVDQKNKKVIISEDFVQKSLSFLKSNNYEDFETDKELSRIQHGNDEAIEDLYTLKQNSSIKSFTNSQTDSTTSKTVNTIIDLEKRPEDEDEVENGDTSLVGVFKHPSIIKSFASRTDINDKFKEGNKTVKILKSYKTVGSSKASITYMGKTRKLIAPKRKTEGSHRYHHDHHNKKMKMKTKTKSNKLFESGQDSFDN
notes: Mrc1, S. cerevisiae; printed as a 125 kDa protein; The FLAG purification is told for the separately purified protein; source: S. cerevisiae, overexpressed at 20°C, purified (anti-FLAG M2, Superose 6)
binds: all assays above
